The values that follow come from article PMC9537338.

No constants are given. Whether binding was seen depends on the method and setting. Binding seen in cells or lysates may run through a third protein. Some binding calls cover weakened binding; strength is not graded here.

The target of this experiment is T1, SMAD4 (human (endogenous in HUVEC)), Q13485.
T1 chain: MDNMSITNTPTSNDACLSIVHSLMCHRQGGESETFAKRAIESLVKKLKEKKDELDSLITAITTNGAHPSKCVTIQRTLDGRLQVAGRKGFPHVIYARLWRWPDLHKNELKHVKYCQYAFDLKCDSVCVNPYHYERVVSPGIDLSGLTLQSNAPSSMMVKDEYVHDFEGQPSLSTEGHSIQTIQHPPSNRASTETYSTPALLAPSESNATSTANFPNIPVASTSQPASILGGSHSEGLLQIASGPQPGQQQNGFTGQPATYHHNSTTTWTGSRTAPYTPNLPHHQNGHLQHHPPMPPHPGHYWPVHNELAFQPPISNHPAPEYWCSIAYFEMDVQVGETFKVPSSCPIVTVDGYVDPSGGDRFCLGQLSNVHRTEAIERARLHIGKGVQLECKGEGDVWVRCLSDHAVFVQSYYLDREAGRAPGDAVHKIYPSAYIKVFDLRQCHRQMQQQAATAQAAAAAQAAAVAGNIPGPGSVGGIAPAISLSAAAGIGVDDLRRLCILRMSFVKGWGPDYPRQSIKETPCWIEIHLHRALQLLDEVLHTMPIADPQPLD
In words: co-IP; SMAD4 complexes isolated with the Pierce Co-Immunoprecipitation Kit from HUVEC-FUCCI sorted into early G1 or late G1 and treated with control, TGF-β1 (1 ng/mL) or BMP4 (5 ng/mL) for 2 h; Western blot for SMAD proteins. To be noted: remark: other sources report otherwise.

B1: SMAD2, Q15796 1-467 (protein)
chain: MSSILPFTPPVVKRLLGWKKSAGGSGGAGGGEQNGQEEKWCEKAVKSLVKKLKKTGRLDELEKAITTQNCNTKCVTIPSTCSEIWGLSTPNTIDQWDTTGLYSFSEQTRSLDGRLQVSHRKGLPHVIYCRLWRWPDLHSHHELKAIENCEYAFNLKKDEVCVNPYHYQRVETPVLPPVLVPRHTEILTELPPLDDYTHSIPENTNFPAGIEPQSNYIPETPPPGYISEDGETSDQQLNQSMDTGSPAELSPTTLSPVNHSLDLQPVTYSEPAFWCSIAYYELNQRVGETFHASQPSLTVDGFTDPSNSERFCLGLLSNVNRNATVEMTRRHIGRGVRLYYIGGEVFAECLSDSAIFVQSPNCNQRYGWHPATVCKIPPGCNLKIFNNQEFAALLAQSVNQGFEAVYQLTRMCTIRMSFVKGWGAEYRRQTVTSTPCWIELHLNGPLQWLDKVLTQMGSPSVRCSSMS
With B1, the binding entry is given as “binds”.

B2: SMAD3, P84022 1-425 (protein)
chain: MSSILPFTPPIVKRLLGWKKGEQNGQEEKWCEKAVKSLVKKLKKTGQLDELEKAITTQNVNTKCITIPRSLDGRLQVSHRKGLPHVIYCRLWRWPDLHSHHELRAMELCEFAFNMKKDEVCVNPYHYQRVETPVLPPVLVPRHTEIPAEFPPLDDYSHSIPENTNFPAGIEPQSNIPETPPPGYLSEDGETSDHQMNHSMDAGSPNLSPNPMSPAHNNLDLQPVTYCEPAFWCSISYYELNQRVGETFHASQPSMTVDGFTDPSNSERFCLGLLSNVNRNAAVELTRRHIGRGVRLYYIGGEVFAECLSDSAIFVQSPNCNQRYGWHPATVCKIPPGCNLKIFNNQEFAALLAQSVNQGFEAVYQLTRMCTIRMSFVKGWGAEYRRQTVTSTPCWIELHLNGPLQWLDKVLTQMGSPSIRCSSVS
With B2, the binding result is reported as “binds”.
